The values that follow come from patent US20250101063A1 (Sichuan Gooddoctor Panxi Pharmaceutical Co., Ltd., priority 2022, published 2025).

Data set [1] can be described thus: general procedure: Fmoc solid-phase peptide synthesis; 2-Chlorotrityl Chloride Resin (0.73 mmol/g); DIC/HOBt. The settings on record: for step yield: purification step; for final purity (method not given): whole synthesis, scale of the general procedure 7.71 g resin (SD=0.73 mmol/g).
Data set [2] in a line: general procedure: Fmoc solid-phase peptide synthesis; 2-Chlorotrityl Chloride Resin; DIC/HOBt. The settings on record: whole synthesis, scale of the general procedure 7.71 g resin (SD=0.73 mmol/g).

Where no end group is shown, it is not given here. [ ]: non-standard residue; d: D form.

Take KEPV[dP]QAKPRKVAAQ: in data set [1], the step yield is reported as 48.6% and the “final purity (method not given)” value is given as 100%.

Consider KEPVAQAKPRKVAAQ, for which, in data set [1], the step yield was found to be 46.5% and the “final purity (method not given)” value amounted to 99.54%.

Regarding PVPQAKPR, the “final purity (method not given)” value in data set [1] turned out to be 99.47%.

PVPQAKP: the “final purity (method not given)” value in data set [1] is given as 99.42%.

In the case of “Pro-Val-Pro-Gln (PVPQ; printed: Pro-Val-Pro-Gln)”, in data set [1], the step yield was found to be 48.7% and the “final purity (method not given)” value is 100%.

Consider KEPVPQAKPR, for which, in data set [1], the step yield was found to be 25.7% and the “final purity (method not given)” value is 97.47%.

For KAPVPQAKPRKVAAQ, in data set [1], the step yield came to 45.8% and the “final purity (method not given)” value came to 99.36%.

Regarding KEPVPQAKPAKVAAQ, in data set [1], the step yield was determined as 42.0% and the “final purity (method not given)” value was 98.06%.

As to KEPVPQ[dA]KPRKVAAQ, in data set [1], the step yield amounted to 86.5% and the “final purity (method not given)” value is 100%.

As to “Glu-Pro-Val-Pro (EPVP; printed: Glu-Pro-Val-Pro)”, in data set [1], the step yield is listed as 57.0% and the “final purity (method not given)” value turned out to be 99.01%.

As to KEPVPQAKPRAVAAQ, in data set [1], the step yield was determined as 42.3% and the “final purity (method not given)” value was determined as 99.73%.

As to “Pro-Arg-Lys-Val (PRKV; printed: Pro-Arg-Lys-Val)”, in data set [1], the step yield is reported as 17.7% and the “final purity (method not given)” value was found to be 97.47%.

Regarding KEPVGQAKPRKVAAQ, in data set [1], the step yield is on record as 38.5% and the “final purity (method not given)” value is listed as 99.12%.

On to “Arg-Lys-Val-Ala (RKVA; printed: Arg-Lys-Val-Ala)”, for which, in data set [1], the step yield amounted to 32.5% and the “final purity (method not given)” value was 97.48%.

Turning to KEGVPQAKGRKVAAQ, in data set [1], the step yield was 53.4% and the “final purity (method not given)” value stood at 100%.

Take KEGVGQAKGRKVAAQ: in data set [1], the step yield is reported as 59.1% and the “final purity (method not given)” value turned out to be 100%.

In the case of “Gln-Ala-Lys-Pro (QAKP; printed: Gln-Ala-Lys-Pro)”, in data set [1], the step yield worked out at 22.9% and the “final purity (method not given)” value was determined as 96.01%.

In the case of KEP[dV]PQAKPRKVAAQ, in data set [1], the step yield is given as 54.8% and the “final purity (method not given)” value is 99.74%.

As for “Pro-Val-Pro-Gln-Ala (PVPQA; printed: Pro-Val-Pro-Gln-Ala)”, the “final purity (method not given)” value in data set [1] worked out at 99.93%.

As to KEPVPQAKPRKVAAA, in data set [1], the step yield is given as 53.5% and the “final purity (method not given)” value is 99.68%.

For the substance “Lys-Val-Ala-Ala (KVAA; printed: Lys-Val-Ala-Ala)”, in data set [1], the step yield is given as 27.0% and the “final purity (method not given)” value amounted to 98.17%.

As to KEPVPQAKPR[dK]VAAQ, in data set [1], the step yield amounted to 67.1% and the “final purity (method not given)” value is given as 100%.

As to KEPVPQAKGRKVAAQ, in data set [1], the step yield is recorded as 55.5% and the “final purity (method not given)” value amounted to 100%.

As for “Pyro-Glu-Leu-Lys-Glu-Pro-Val-Pro-Gln-Ala-Lys-Pro-Arg-Lys-Val-Ala-Ala-Gln (ELKEPVPQAKPRKVAAQ; N-terminal pyroglutamate; acetate salt; printed: Glu-Leu-Lys-Glu-Pro-Val-Pro-Gln-Ala-Lys-Pro-Arg-Lys-Val-Ala-Ala-Gln)”, in data set [1], the step yield is listed as 48.6% and the “final purity (method not given)” value was found to be 99.86%.

For NPVPQAK, in data set [1], the step yield was found to be 58.3% and the “final purity (method not given)” value was 99.53%.

For EPV[dP]QAK, in data set [1], the step yield is given as 45.6% and the “final purity (method not given)” value is reported as 98.06%.

For EPAPQAK, in data set [1], the step yield is 56.9% and the “final purity (method not given)” value is listed as 99.14%.

Regarding KEGVGQAKPRKVAAQ, in data set [1], the step yield turned out to be 59.4% and the “final purity (method not given)” value is given as 100%.

On to KEPVPQ, for which, in data set [1], the step yield worked out at 91.8% and the “final purity (method not given)” value is 98.83%.

Consider “Pro-Val-Pro-Ile-Ala (PVPIA; printed: Pro-Val-Pro-Ile-Ala)”, for which, in data set [1], the step yield came out at 60.8% and the “final purity (method not given)” value was determined as 99.87%.

In the case of H-KEPVPQAKPRKVAAQ-OH, the crude yield in data set [2] was 74.7%. For the same substance, in data set [1], the step yield was determined as 59.5% and the “final purity (method not given)” value is on record as 99.44%. This substance also came in with a step yield in data set [1] (purification yield) of 59.5%.

For the substance EPVGQAK, the “final purity (method not given)” value in data set [1] came out at 97.89%.

Turning to EPVPQAKPRKV, the “final purity (method not given)” value in data set [1] was 98.46%.

Turning to EPVPQAKPRKVA, the “final purity (method not given)” value in data set [1] was determined as 97.89%.

In the case of AEPVPQAKPRKVAAQ, in data set [1], the step yield is recorded as 43.7% and the “final purity (method not given)” value was 100%.

With KEGVPQAKPRKVAAQ, in data set [1], the step yield came out at 50.3% and the “final purity (method not given)” value worked out at 100%.

For the substance KEPVPAAKPRKVAAQ, in data set [1], the step yield was 51.3% and the “final purity (method not given)” value turned out to be 99.42%.

On to RKDVYKEPVPQAKPRKVAAQ, for which, in data set [1], the step yield came out at 27.4% and the “final purity (method not given)” value is given as 100%.

As to KEPVPQAKPRKVAAN, in data set [1], the step yield is given as 42.8% and the “final purity (method not given)” value was 98.79%.

For VPYKEPVPQAKPRKVAAQ, in data set [1], the step yield was 39.7% and the “final purity (method not given)” value was found to be 99.40%.

Regarding VPPKEPVPQAKPRKVAAQ, in data set [1], the step yield is listed as 37.9% and the “final purity (method not given)” value was 100%.

On to KEPVPQAKPRKV[dA]AQ, for which, in data set [1], the step yield is given as 46.3% and the “final purity (method not given)” value is listed as 97.94%.

On to [dK]EPVPQAKPRKVAAQ, for which, in data set [1], the step yield came out at 52.4% and the “final purity (method not given)” value amounted to 100%.

As for KEPVPQAK, in data set [1], the step yield came out at 26.1% and the “final purity (method not given)” value worked out at 98.22%.

As for EPVPEAK, in data set [1], the “final purity (method not given)” value stood at 97.91%.

As to EPVPQAKPR, the “final purity (method not given)” value in data set [1] turned out to be 98.76%.

Take “Val-Ala-Ala-Gln (VAAQ; printed: Val-Ala-Ala-Gln)”: in data set [1], the step yield is recorded as 53.0% and the “final purity (method not given)” value is given as 100%.

“Pro-Gln-Ala-Lys (PQAK; printed: Pro-Gln-Ala-Lys)”: in data set [1], the step yield turned out to be 22.0% and the “final purity (method not given)” value amounted to 98.20%.

With KEPVPQAKPRKAAAQ, in data set [1], the step yield is reported as 39.2% and the “final purity (method not given)” value stood at 99.10%.

On to “Ala-Lys-Pro-Arg (AKPR; printed: Ala-Lys-Pro-Arg)”, for which, in data set [1], the step yield came to 17.3% and the “final purity (method not given)” value was determined as 98.79%.

As for EPVPAAK, in data set [1], the step yield came to 39.7% and the “final purity (method not given)” value is on record as 98.55%.

Consider KEPVPQAKPRK[dV]AAQ, for which, in data set [1], the step yield is 73.3% and the “final purity (method not given)” value is recorded as 100%.

As for EGVPQAK, in data set [1], the “final purity (method not given)” value was determined as 97.45%.

For the substance EAVPQAK, the “final purity (method not given)” value in data set [1] is reported as 98.45%.

As for PVPQAK, in data set [1], the step yield is 45.2% and the “final purity (method not given)” value was 99.87%.

On to EPVPQAR, for which, in data set [1], the step yield amounted to 42.3% and the “final purity (method not given)” value stood at 98.98%.

For the substance KEPVP[dQ]AKPRKVAAQ, in data set [1], the step yield is 59.8% and the “final purity (method not given)” value is on record as 100%.

Regarding KE[dP]VPQAKPRKVAAQ, in data set [1], the step yield is 54.3% and the “final purity (method not given)” value is 100%.

On to KEPVGQAKGRKVAAQ, for which, in data set [1], the step yield is listed as 53.2% and the “final purity (method not given)” value was determined as 100%.

As for KEPVPQAKPRKVAA[dQ], in data set [1], the step yield stood at 44.2% and the “final purity (method not given)” value is recorded as 99.03%.

Turning to “Pro-Val-Pro-Glu-Ala (PVPEA; printed: Pro-Val-Pro-Glu-Ala)”, in data set [1], the step yield is reported as 47.9% and the “final purity (method not given)” value is 100%.

On to KEPVPQAAPRKVAAQ, for which, in data set [1], the step yield is reported as 52.6% and the “final purity (method not given)” value is 99.72%.

RKDVYPVPQ: in data set [1], the step yield is recorded as 57.1% and the “final purity (method not given)” value was 98.08%.

In the case of KEPVPQA[dK]PRKVAAQ, in data set [1], the step yield stood at 71.5% and the “final purity (method not given)” value was found to be 100%.

With DPVPQAK, the “final purity (method not given)” value in data set [1] stood at 99.69%.

For KEPAPQAKPRKVAAQ, in data set [1], the step yield was determined as 51.8% and the “final purity (method not given)” value is 99.90%.

Regarding EP[dV]PQAK, in data set [1], the step yield is on record as 48.5% and the “final purity (method not given)” value turned out to be 98.51%.

In the case of EPVPQAKPRK, in data set [1], the step yield is given as 51.1% and the “final purity (method not given)” value was determined as 99.00%.

Turning to KEPVPQAKP[dR]KVAAQ, in data set [1], the step yield came out at 63.4% and the “final purity (method not given)” value was 100%.

Consider KEPIPQAKPRKVAAQ, for which, in data set [1], the step yield is given as 39.7% and the “final purity (method not given)” value came out at 99.54%.

“Lys-Glu-Pro-Val-Pro (KEPVP; printed: Lys-Glu-Pro-Val-Pro)”: in data set [1], the step yield came out at 42.8% and the “final purity (method not given)” value turned out to be 99.94%.

In the case of EPVPQAKP, in data set [1], the “final purity (method not given)” value was determined as 98.17%.

With RKDVYEPVPQAK, in data set [1], the step yield was 48.5% and the “final purity (method not given)” value was found to be 98.83%.

With SSEDIKEPVPQ, in data set [1], the step yield was 49.9% and the “final purity (method not given)” value stood at 98.08%.

Consider K[dE]PVPQAKPRKVAAQ, for which, in data set [1], the step yield came out at 53.8% and the “final purity (method not given)” value came to 100%.

As to “Pro-Val-Pro-Ala (PVPA; printed: Pro-Val-Pro-Ala)”, in data set [1], the step yield came out at 60.7% and the “final purity (method not given)” value was 100%.

Consider KEPVPQAKPRKVA[dA]Q, for which, in data set [1], the step yield was determined as 37.3% and the “final purity (method not given)” value was 99.12%.
